According to patent US20080009546A1 (Chevron U.S.A. Inc., priority 2005, published 2008):

System: NMDA receptor
Experiment: [3H]MK-801 binding assay, NMDA receptors in guinea pig brain membranes
Details: guinea pig brain membrane preparation (Table 29)
Description: Hartley guinea pigs were sacrificed, and their brains were quickly removed and weighed. The brains then were homogenized in 50 mM Tris HCl buffer, pH 7.7, using a Polytron homogenizer. The homogenate was centrifuged at 40,000×g for 15 min, rehomogenized, and centrifuged again. The final pellet was resuspended in Tris-HCl, pH 7.7, at a final concentration of 6.67 mg original wet weight of tissue/ml. […] The samples were then filtered through glass fiber filters on a Tomtec cell harvester. The filters were washed 3 times with 3 ml of cold buffer. Filters were dried overnight and counted next day on a Wallac Betaplate Reader.
The binding experiments were conducted as follows. […] For each compound, graphs were prepared containing individual competition curves obtained for that compound. IC50 values and Hill coefficients were calculated using the program Prism. Ki values were calculated using the Chang Prusoff transformation: Ki=IC50/(1+L/Kd)
where L is radioligand concentration and Kd is the binding affinity of the radioligand, as determined previously by saturation analysis. […] In each experiment, one standard compound was simultaneously run on each 96 well plate.

| Molecule | Hill Slope |
| --- | --- |
| 1,6-dimethyl-2-aminodiamantane mixture [MDT-6] | 1.30 ± 0.07 |
| 1,6-dimethyl-4-aminodiamantane mixture [MDT-7] | 2.05 ± 0.34 |
| 2-aminotriamantane [MDT-50] | 1.07 ± 0.06 |
| 3-amino-triamantane [MDT-48] | 1.27 ± 0.20 |
| CC12CC3(N)CC4C5CC(CC41)CC2C5C3 (single isomer, unassigned) [MDT-22 (prep from Example 4)] | 0.47 ± 0.03 |
| CC12CC3(N)CC4C5CC(CC41)CC2C5C3 (single isomer, unassigned) [MDT-22 (prep from Example 7)] | 1.18 ± 0.72 |
| NC12CC3CC4C5CC(CC41)CC2C5C3 [MDT-1] | 1.28 ± 0.10 |
| NC12CC3CC4C5CC(CC41)CC2C5C3 [MDT-2] | 1.21 ± 0.00 |
| NC12CC3C4CC5CC3C(C1)C(C5)C4C2 [MDT-3] | 1.55 ± 0.10 |
| NC12CC3CC4C1CC1CC2C(C3)C4(N)C1 [MDT-4] | 0.65 ± 0.06 |
| NC12CC3C4CC5(N)CC3C(C1)C(C5)C4C2 [MDT-5] | 1.05 ± 0.30 |
| CC12CC3(N)CC4C1CC1CC2C(N)(C3)C4(C)C1 (centres unmarked) [MDT-9, 1,6-dimethyl-2,4-diaminodiamantane] | 0.87 ± 0.14 |
| CC12CC3CC4C1CC1(N)CC2C(C3)C4(C)C1 [MDT-23 (prep from Example 4)] | 0.83 ± 0.00 |
| CC12CC3CC4C1CC1(N)CC2C(C3)C4(C)C1 [MDT-23 (prep from Example 5)] | 0.97 ± 0.05 |
| CC12CC3CC4C5CC(N)(CC41)CC2C5C3 [MDT-24, 1-methyl-4-aminodiamantane] | 1.47 ± 0.38 |
| CC12CC3CC4C1CC1(N)CC2C(C3)C4(N)C1 [MDT-29] | 0.67 ± 0.15 |
| CC12CC3CC4C1CC1(N)CC2C(C3)C4(C)C1 [MDT-33, 1,6-dimethyl-4-aminodiamantane] | 1.13 ± 0.09 |
| CC12CC3CC4C1CC1CC2C(N)(C3)C4(C)C1 (centres unmarked) [MDT-43, 1,6-dimethyl-2-aminodiamantane] | 0.92 ± 0.1 |
| CC12CC3C4CC5(C)CC3C(C1)C(N)(C5)C4C2 [MDT-51, 4,9-dimethyl-1-aminodiamantane] | 0.78 ± 0.17 |
| CC12CC3C4CC5(C)CC(C(C1)C3(N)C5)C4(N)C2 [MDT-53, 4,9-dimethyl-1,6-diaminodiamantane] | 1.12 ± 0.03 |
| NCC12CC3CC4C5CC(CC41)CC2C5C3 [MDT-56] | 0.51 ± 0.09 |
| CC(N)C12CC3CC4C5CC(CC41)CC2C5C3 (centres unmarked) [MDT-57] | 0.87 ± 0.07 |
| Cl.NCC12CC3C4CC5CC3C(C1)C(C5)C4C2 [MDT-61] | 1.50 ± 0.40 |
| CC12CC3C4CC5(C)CC3C(C1)C(CN)(C5)C4C2 [MDT-63] | 1.18 ± 0.01 |
| CC12CC3CC4C1CC1(CN)CC2C(C3)C4(C)C1 [MDT-65] | 1.11 ± 0.11 |
| CC12CC3CC(C)(C1)CC(N)(C3)C2 [memantine, 1-amino-3,5-dimethyladamantane, reference compound] | 1.00 ± 0.05 |

Same assay, conditions: standard compounds at the NMDA site (Table 27)

| Molecule | Hill Slope |
| --- | --- |
| NC12CC3CC(CC(C3)C1)C2 [Amantadine] | 1.20 ± 0.45 (n = 2) |
| CN[C@H](CC(=O)O)C(=O)O [NMDA] | 0.80 ± 0.04 (n = 2) |
| CC12CC3CC(C)(C1)CC(N)(C3)C2 [memantine, 1-amino-3,5-dimethyladamantane, reference compound] | 1.00 ± 0.05 (n = 3) |
